Drawing on PubChem BioAssay AID330 (DTP/NCI, 2004), this text covers T/C and survivor count for 33 molecules.

The list does not hold the whole screen: it is rich in T/C values a quarter to a half above the control, in often repeated tests (any T/C) and in doses without a T/C. Further doses and runs are listed elsewhere. T/C gives the treated animals as a percentage of the vehicle group. Some doses have a count of surviving animals in place of a T/C: the source holds a T/C of zero for them, seemingly a mark for toxic or unscored doses. Some doses without a T/C left all or most animals alive at the check, yet need not have been tolerated: the source hardly ever lists a survival T/C far under the control, and the zero likely stands for such cases as well. Counts of survivors are from the toxicity check (mostly the fifth day) where no day follows; animals may have died later. Schedules are NCI's codes, taken here to give the interval after Q, in days (D) or hours (H), and the number of doses after X. Some doses were run more than once; the results are listed from low to high. For survival time, the PubChem record calls one and a half times the control and up active, and a quarter to a half above the control has no call in these data; cut-offs in other NCI protocols can differ. Additions like (4×) stand for listed records that agree. Some T/C values are followed by the survivors on the day toxicity was checked, most often the fifth; where none is given, no animal had died by that day.

In the test the test system is P388 leukemia ip, CD2F1 mice, survival T/C. Put plainly: NCI In Vivo Anticancer Drug Screen. Data for tumor model P388 Leukemia (intraperitoneal) in CD2F1 (CDF1) mice. The note with it: T/C endpoint: median survival time, higher T/C = longer survival.
[1] abbreviates: dose: 200.0 mg/kg/injection, schedule: Q01DX009 (ip), vehicle: saline with Tween-80.
Where [2] appears, read: dose: 50.0 mg/kg/injection, schedule: Q01DX009 (ip), vehicle: saline.
Where [3] appears, read: dose: 100.0 mg/kg/injection, schedule: Q01DX009 (ip), vehicle: saline.
Setting [4] is: dose: 200.0 mg/kg/injection, schedule: Q01DX009 (ip), vehicle: saline.
The mark [5] stands for this setting: dose: 200.0 mg/kg/injection, schedule: Q04DX003 (ip), vehicle: saline.
Where [6] appears, read: dose: 240.0 mg/kg/injection, schedule: Q01DX005 (ip), vehicle: Klucel (hydroxypropylcellulose) (HPC).
Where [7] appears, read: dose: 12.5 mg/kg/injection, schedule: Q01DX009 (ip), vehicle: saline.
The mark [8] stands for this setting: dose: 25.0 mg/kg/injection, schedule: Q01DX009 (ip), vehicle: saline.
Where [9] appears, read: dose: 400.0 mg/kg/injection, schedule: Q04DX003 (ip), vehicle: saline.
The mark [10] stands for this setting: dose: 100.0 mg/kg/injection, schedule: Q01DX005 (ip), vehicle: Klucel (hydroxypropylcellulose) (HPC).
[11] abbreviates: dose: 200.0 mg/kg/injection, schedule: Q01DX005 (ip), vehicle: Klucel (hydroxypropylcellulose) (HPC).
The mark [12] stands for this setting: dose: 100.0 mg/kg/injection, schedule: Q01DX005 (ip), vehicle: saline with Tween-80.
Where [13] appears, read: dose: 200.0 mg/kg/injection, schedule: Q01DX005 (ip), vehicle: saline with Tween-80.
[14] abbreviates: dose: 50.0 mg/kg/injection, schedule: Q01DX005 (ip), vehicle: saline with Tween-80.
Where [15] appears, read: dose: 120.0 mg/kg/injection, schedule: Q01DX005 (ip), vehicle: Klucel (hydroxypropylcellulose) (HPC).
The mark [16] stands for this setting: dose: 100.0 mg/kg/injection, schedule: Q01DX009 (ip), vehicle: Klucel (hydroxypropylcellulose) (HPC).

For the molecule `Cc1c(N)nc(C(CC(N)=O)NCC(N)C(N)=O)nc1C(=O)NC(C(=O)NC(C)C(O)C(C)C(=O)NC(C(=O)NCCc1nc(-c2nc(C(=O)NCCCNCCCCN)cs2)cs1)C(C)O)C(OC1OC(CO)C(O)C(O)C1OC1OC(CO)C(O)C(OC(N)=O)C1O)c1cnc[nH]1` (stereo not drawn), the T/C was 133 % of control (dose: 25.0 mg/kg/injection, schedule: Q01DX005 (ip), vehicle: saline); 135 and 136 % of control (dose: 50.0 mg/kg/injection, schedule: Q01DX005 (ip), vehicle: saline). The survivor count by setting is: (dose: 100.0 mg/kg/injection, schedule: Q01DX005 (ip), vehicle: saline) 6 of 6; (dose: 200.0 mg/kg/injection, schedule: Q01DX005 (ip), vehicle: saline) 1 of 6.
`O=S(=O)(Cl)C(F)(F)C(F)(F)C(F)(F)C(F)(F)C(F)(F)C(F)(F)F`: the survivor count under setting [1] is recorded as 6 of 6.
As for `CCOCc1nc(N)nc(N)c1-c1cccc(Cl)c1`, the survivor count (dose: 240.0 mg/kg/injection, schedule: Q01DX005 (ip), vehicle: saline with Tween-80) was 3 of 6.
Take `CCCCCCCCCCCC[N+]1([O-])CCCCC1`: the survivor count is, setting by setting: under setting [2], 6 of 6; under setting [3], 4 of 6; under setting [4], 0 of 6.
Turning to `O=C1C=CC(=O)C(C2OC(=O)C(Br)=C2Br)=C1` (stereo not drawn), the survivor count (dose: 200.0 mg/kg/injection, schedule: Q01DX005 (ip), vehicle: distilled water + Tween-80) was 3 of 6.
Turning to `O=C1NC(=O)C(=O)N1`, under setting [5], the survivor count is 6 of 6.
For the molecule `O=C(NP(=O)(N1CC1)N1CC1)c1cc(I)ccc1I`, the T/C is 141 % of control (dose: 8.0 mg/kg/injection, schedule: Q01DX005 (ip), vehicle: suspension in saline); 128 % of control (dose: 32.0 mg/kg/injection, schedule: Q01DX005 (iv), vehicle: suspension in saline); 125 % of control (dose: 64.0 mg/kg/injection, schedule: Q01DX005 (iv), vehicle: suspension in saline).
With `CC(=O)OCN(C)N=Nc1ccc(C#N)cc1`, the survivor count under setting [6] is listed as 6 of 6.
With `C=CC[Si](CC=C)(c1ccccc1)c1ccccc1`, the T/C by setting is: under setting [7], 90, 94 [5 of 6 alive] (2×), 98 % of control; under setting [8], 100, 103, 104, 126 % of control; under setting [2], 94, 96 [5 of 6 alive], 97, 98, 159 % of control. Also, under setting [3], the survivor count is on record as 6 of 6.
On to `CC(c1ccccc1)[n+]1ccccc1C1OCCO1` (stereo not drawn), for which the survivor count was 0 of 6 (dose: 100.0 mg/kg/injection, schedule: Q04DX003 (ip), vehicle: saline); 0 of 6 under setting [5]; 0 of 6 under setting [9].
Turning to `COc1cc2cnc(-c3ccncc3)cc2cc1OC`, the survivor count under setting [9] is 0 of 6.
On to `C=C1C(=O)[C@@]23CC1C(O)[C@@H](OC(C)=O)[C@@H]2C1(C)C(OC(C)=O)C[C@@H](OC(C)=O)C(C)(C)[C@@H]1C[C@H]3OC(C)=O` (stereo partly drawn), for which the survivor count is recorded as 2 of 6 under setting [10] and 0 of 6 under setting [11].
`Cc1c(-c2ccccc2)ccnc1/C=N/NC(=S)NCCc1ccccc1`: the T/C was 130 % of control [5 of 6 alive] (dose: 12.5 mg/kg/injection, schedule: Q01DX009 (ip), vehicle: saline with Tween-80); 131 % of control (dose: 25.0 mg/kg/injection, schedule: Q01DX009 (ip), vehicle: saline with Tween-80); 141 and 144 % of control (dose: 50.0 mg/kg/injection, schedule: Q01DX009 (ip), vehicle: saline with Tween-80). Besides, the survivor count under setting [1] is listed as 4 of 6.
Regarding `Cc1cc(C)c2c(c1)CC(C)(C)CC2(O)C1CCCCN1` (stereo not drawn), the survivor count under setting [11] was 0 of 5.
For the molecule `CCC12CCCN3CCc4c(n(c5ccc(Br)cc45)C(=O)CC1)C32` (stereo not drawn), the survivor count runs as follows: under setting [12], 6 of 6; under setting [13], 6 of 6.
As for `O=NNc1c2ccccc2nc2ccccc12`, the survivor count is given as 0 of 6 (dose: 1.56 mg/kg/injection, schedule: Q01DX009 (ip), vehicle: water); 3 of 6 (dose: 3.12 mg/kg/injection, schedule: Q01DX009 (ip), vehicle: water); 3 of 6 (dose: 6.25 mg/kg/injection, schedule: Q01DX009 (ip), vehicle: water); 0 of 6 (dose: 12.5 mg/kg/injection, schedule: Q01DX009 (ip), vehicle: water); 0 of 6 (dose: 25.0 mg/kg/injection, schedule: Q01DX009 (ip), vehicle: water).
`CCCCCCCNC1=C(N2CC2)C(=O)C(NCCCCCCC)=C(N2CC2)C1=O`: where the note is “dose: 1.25 mg/kg/injection, schedule: Q01DX009 (ip), vehicle: saline”, the survivor count is reported as 0 of 6.
In the case of `COc1cccc2c1C(=O)c1c(O)c3c(c(O)c1C2=O)C[C@@](O)(C(C)=O)C[C@@H]3OC1CC(NCC(c2ccccc2)c2ccccc2)C(O)C(C)O1` (stereo partly drawn), the T/C (dose: 200.0 mg/kg/injection, schedule: Q04DX003 (ip), vehicle: water) is 147 % of control.
On to `C#CCOCC(O)CCl` (stereo not drawn), for which the survivor count (dose: 400.0 mg/kg/injection, schedule: Q01DX009 (ip), vehicle: saline) was 3 of 6.
For `NC(Cc1cccc2ccccc12)C(=O)O` (stereo not drawn), the survivor count is 1 of 5 under setting [10] and 0 of 5 under setting [11].
For the molecule `NCCc1c[nH]c2ccc(OCc3ccccc3)cc12`, the survivor count runs as follows: under setting [5], 6 of 6; under setting [9], 0 of 6.
For `CC(=O)Oc1cc(C)c(OC(C)=O)c(OC(C)=O)c1C`, under “dose: 400.0 mg/kg/injection, schedule: Q04DX002 (ip), vehicle: Klucel (hydroxypropylcellulose) (HPC)”, the survivor count is listed as 1 of 6.
For the molecule `COc1c2c(c(OC)c3c1C(=O)c1ccccc1C3=O)C(=O)CCC2`, the survivor count (dose: 120.0 mg/kg/injection, schedule: Q01DX005 (ip), vehicle: saline with Tween-80) is listed as 6 of 6.
As to `C=CCC(CC)(C(=O)Nc1ccc2nc(C)cc(N)c2c1)C(=O)Nc1ccc2nc(C)cc(N)c2c1`, the survivor count is, setting by setting: (dose: 25.0 mg/kg/injection, schedule: Q01DX005 (ip), vehicle: saline with Tween-80) 6 of 6; under setting [14], 5 of 5.
As to `CN(C)C(=O)c1ccc(SC(=S)NCc2ccccc2)cc1`, the survivor count under setting [6] is given as 0 of 6.
As to `O=C1Nc2ccccc2C(=O)C1=Ic1ccccc1`, the survivor count reads like this: under setting [15], 2 of 6; under setting [11], 6 of 6; under setting [6], 0 of 6.
Turning to `CC(NNC(=S)N1CCCC1)c1cc2ccccc2cn1` (stereo not drawn), the T/C was 133 % of control under setting [14] and 135 % of control (2×) under setting [12]. Moreover, the survivor count under setting [13] is recorded as 0 of 6, 2 of 6, 5 of 6.
Regarding `C1CC[C@@]2([C@]34CCCC[C@H]3O4)O[C@H]2C1`, the survivor count by setting is: (dose: 60.0 mg/kg/injection, schedule: Q01DX005 (ip), vehicle: Klucel (hydroxypropylcellulose) (HPC)) 6 of 6; under setting [15], 6 of 6.
Turning to `Cc1nc2ccccc2c(=O)n1/N=C/c1ccc(Cl)cc1Cl`, the survivor count under setting [13] is reported as 6 of 6.
`O=C1OC2(C=C1Br)CCC21C=C(Br)C(=O)O1` (stereo not drawn): the survivor count is 1 of 6 (dose: 50.0 mg/kg/injection, schedule: Q01DX009 (ip), vehicle: Klucel (hydroxypropylcellulose) (HPC)) and 0 of 6 under setting [16].
For the molecule `C1CN2CN3CCN(CN1C3)C2`, the T/C is 128 % of control under setting [7], 146 % of control under setting [8], 136 % of control under setting [2] and 129 % of control [5 of 6 alive] under setting [3]. Further, under setting [4], the survivor count is 5 of 6 and 6 of 6.
As to `CCOC(=O)Nc1nc2c(SC#N)cc(C)cc2s1`, the survivor count under setting [16] is reported as 5 of 6 and the survivor count (dose: 200.0 mg/kg/injection, schedule: Q01DX009 (ip), vehicle: Klucel (hydroxypropylcellulose) (HPC)) is 0 of 6.
As for `CN1CCN(c2ccncc2S(=O)(=O)N2CCOCC2)CC1`, the survivor count under setting [4] is listed as 1 of 6.
